Measured values as given in patent US20240034757A1.
No constants are given. Whether binding was seen depends on the method and setting.

Protein sequences, listed by entry. Tags and fused reporters are not part of them. Residues count along the entry.
UniProt P80098, residues 24-99: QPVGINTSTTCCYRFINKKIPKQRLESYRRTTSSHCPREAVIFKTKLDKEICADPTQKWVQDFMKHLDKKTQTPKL
UniProt O14625, residues 22-94: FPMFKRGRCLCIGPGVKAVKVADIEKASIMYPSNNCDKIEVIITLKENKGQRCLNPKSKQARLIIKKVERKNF
UniProt P13501, residues 24-91: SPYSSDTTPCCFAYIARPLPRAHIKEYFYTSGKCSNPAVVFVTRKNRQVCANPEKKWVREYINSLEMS
UniProt P19875, residues 35-107: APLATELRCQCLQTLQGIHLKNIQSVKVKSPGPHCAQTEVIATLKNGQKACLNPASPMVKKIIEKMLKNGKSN
UniProt Q92583, residues 24-94: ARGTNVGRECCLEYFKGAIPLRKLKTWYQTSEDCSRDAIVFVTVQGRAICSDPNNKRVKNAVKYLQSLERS
UniProt P42830, residues 41-114: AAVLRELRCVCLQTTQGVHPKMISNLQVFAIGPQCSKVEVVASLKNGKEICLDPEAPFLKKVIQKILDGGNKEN
UniProt O00626, residues 25-93: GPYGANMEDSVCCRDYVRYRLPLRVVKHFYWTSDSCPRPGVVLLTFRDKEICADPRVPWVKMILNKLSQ
UniProt Q9Y4X3, residues 25-112: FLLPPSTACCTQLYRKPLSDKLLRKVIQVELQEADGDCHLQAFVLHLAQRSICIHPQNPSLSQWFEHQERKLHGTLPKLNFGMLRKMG
UniProt O15467, residues 24-120: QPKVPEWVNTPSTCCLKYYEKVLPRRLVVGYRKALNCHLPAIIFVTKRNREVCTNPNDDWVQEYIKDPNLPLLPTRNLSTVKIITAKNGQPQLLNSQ
UniProt Q9NRJ3, residues 23-127: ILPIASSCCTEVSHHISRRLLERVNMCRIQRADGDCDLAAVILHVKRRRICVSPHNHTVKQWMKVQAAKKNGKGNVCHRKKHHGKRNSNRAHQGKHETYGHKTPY
UniProt P48061, residues 22-89: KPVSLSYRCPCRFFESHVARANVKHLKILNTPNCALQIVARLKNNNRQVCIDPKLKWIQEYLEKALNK
UniProt O43927, residues 23-109: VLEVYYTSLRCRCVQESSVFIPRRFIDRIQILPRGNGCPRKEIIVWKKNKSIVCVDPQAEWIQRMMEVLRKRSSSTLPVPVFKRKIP
UniProt O00585, residues 24-134: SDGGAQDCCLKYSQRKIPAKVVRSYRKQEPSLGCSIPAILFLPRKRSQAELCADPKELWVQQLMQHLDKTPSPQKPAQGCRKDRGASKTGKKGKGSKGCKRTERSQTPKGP
UniProt P09341, residues 35-107: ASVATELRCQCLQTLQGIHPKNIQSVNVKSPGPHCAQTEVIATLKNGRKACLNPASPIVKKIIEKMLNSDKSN
UniProt P02775, residues 59-128: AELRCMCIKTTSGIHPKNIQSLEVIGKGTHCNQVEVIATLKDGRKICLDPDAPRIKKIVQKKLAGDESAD
UniProt P22362, residues 24-96: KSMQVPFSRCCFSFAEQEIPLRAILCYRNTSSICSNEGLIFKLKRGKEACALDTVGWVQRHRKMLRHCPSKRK
UniProt P55773, residues 22-120: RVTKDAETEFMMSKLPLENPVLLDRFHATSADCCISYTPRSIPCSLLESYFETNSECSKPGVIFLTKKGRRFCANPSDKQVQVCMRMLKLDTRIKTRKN
UniProt O00175, residues 27-104: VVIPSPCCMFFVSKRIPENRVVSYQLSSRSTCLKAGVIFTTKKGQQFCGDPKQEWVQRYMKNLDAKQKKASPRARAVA
UniProt Q16663, residues 22-113: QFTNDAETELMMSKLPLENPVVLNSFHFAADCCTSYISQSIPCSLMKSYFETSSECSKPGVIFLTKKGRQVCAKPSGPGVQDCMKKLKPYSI
UniProt P02776, residues 32-101: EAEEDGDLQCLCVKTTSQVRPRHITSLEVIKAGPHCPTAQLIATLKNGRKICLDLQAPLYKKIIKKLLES
UniProt O95715, residues 35-111: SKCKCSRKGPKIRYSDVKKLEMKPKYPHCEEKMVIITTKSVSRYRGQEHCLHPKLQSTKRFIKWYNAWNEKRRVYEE
UniProt P19876, residues 35-107: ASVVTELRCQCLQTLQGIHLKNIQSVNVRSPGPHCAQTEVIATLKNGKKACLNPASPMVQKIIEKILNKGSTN
UniProt P80162, residues 38-114: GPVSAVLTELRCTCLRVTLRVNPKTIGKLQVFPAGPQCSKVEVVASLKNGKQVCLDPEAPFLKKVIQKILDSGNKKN
UniProt P78556, residues 27-96: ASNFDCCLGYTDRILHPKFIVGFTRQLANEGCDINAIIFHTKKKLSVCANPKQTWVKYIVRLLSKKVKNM
UniProt Q99731, residues 22-98: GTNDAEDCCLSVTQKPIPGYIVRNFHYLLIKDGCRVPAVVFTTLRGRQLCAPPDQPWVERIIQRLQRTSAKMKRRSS
UniProt P78423, residues 25-100: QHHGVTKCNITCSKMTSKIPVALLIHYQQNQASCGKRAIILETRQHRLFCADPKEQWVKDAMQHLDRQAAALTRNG
UniProt P02778, residues 22-98: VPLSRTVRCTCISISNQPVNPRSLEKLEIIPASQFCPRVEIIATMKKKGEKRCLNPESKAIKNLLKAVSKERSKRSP
UniProt P10145, residues 28-99: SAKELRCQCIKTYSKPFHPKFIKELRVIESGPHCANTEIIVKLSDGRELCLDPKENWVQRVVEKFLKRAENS
UniProt Q07325, residues 23-125: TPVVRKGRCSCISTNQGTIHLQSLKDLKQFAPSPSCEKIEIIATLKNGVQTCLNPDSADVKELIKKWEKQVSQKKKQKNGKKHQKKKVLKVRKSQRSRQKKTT
UniProt P10147, residues 24-92: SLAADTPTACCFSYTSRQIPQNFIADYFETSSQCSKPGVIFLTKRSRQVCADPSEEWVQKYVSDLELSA
UniProt Q16627, residues 22-93: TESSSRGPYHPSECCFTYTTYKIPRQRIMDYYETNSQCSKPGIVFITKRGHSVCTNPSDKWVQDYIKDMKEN
UniProt P55774, residues 21-89: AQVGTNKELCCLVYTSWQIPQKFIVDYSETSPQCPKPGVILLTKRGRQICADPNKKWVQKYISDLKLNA

Legend:
CCL7_HUMAN (human) = CCL7_HUMAN (human) (UniProt P80098); assay: BLI, empty cell the 12th table, row 76, column 6
CXCL11_HUMAN (human) [1] = target: CXCL11_HUMAN (human) (UniProt O14625); assay: BLI, empty cell the 12th table, row 106, column 6
CCL5_HUMAN (human) [2] = target: CCL5_HUMAN (human) (UniProt P13501); assay: BLI, empty cell the 12th table, row 75, column 6
CXCL2_HUMAN (human) [3] = target: CXCL2_HUMAN (human) (UniProt P19875); assay: BLI, empty cell the 12th table, row 97, column 6
CCL17_HUMAN (human) [4] = target: CCL17_HUMAN (human) (UniProt Q92583); assay: BLI, empty cell the 12th table, row 83, column 6
CXCL5_HUMAN (human) [5] = target: CXCL5_HUMAN (human) (UniProt P42830); assay: BLI, empty cell the 12th table, row 100, column 6
CCL22_HUMAN (human) = CCL22_HUMAN (human) (UniProt O00626); assay: BLI, empty cell the 12th table, row 88, column 6
CCL27_HUMAN (human) [6] = target: CCL27_HUMAN (human) (UniProt Q9Y4X3); assay: BLI, empty cell the 12th table, row 93, column 6
CCL16_HUMAN (human) [7] = target: CCL16_HUMAN (human) (UniProt O15467); assay: BLI, empty cell the 12th table, row 82, column 6
CCL28_HUMAN (human) [8] = target: CCL28_HUMAN (human) (UniProt Q9NRJ3); assay: BLI, empty cell the 12th table, row 94, column 6
CXCL12_HUMAN (human) [9] = target: CXCL12_HUMAN (human) (UniProt P48061); assay: BLI, empty cell the 12th table, row 107, column 6
CXCL13_HUMAN (human) [10] = target: CXCL13_HUMAN (human) (UniProt O43927); assay: BLI, empty cell the 12th table, row 108, column 6
CCL21_HUMAN (human) [11] = target: CCL21_HUMAN (human) (UniProt O00585); assay: BLI, empty cell the 12th table, row 87, column 6
CXCL1_HUMAN (human) [12] = target: CXCL1_HUMAN (human) (UniProt P09341); assay: BLI, empty cell the 12th table, row 96, column 6
CXCL7_HUMAN (human) [13] = target: CXCL7_HUMAN (human) (UniProt P02775); assay: BLI, empty cell the 12th table, row 102, column 6
CCL1_HUMAN (human) [14] = target: CCL1_HUMAN (human) (UniProt P22362); assay: BLI, empty cell the 12th table, row 69, column 6
CCL23_HUMAN (human) [15] = target: CCL23_HUMAN (human) (UniProt P55773); assay: BLI, empty cell the 12th table, row 89, column 6
CCL24_HUMAN (human) [16] = target: CCL24_HUMAN (human) (UniProt O00175); assay: BLI, empty cell the 12th table, row 90, column 6
CCL15_HUMAN (human) [17] = target: CCL15_HUMAN (human) (UniProt Q16663); assay: BLI, empty cell the 12th table, row 81, column 6
CXCL4_HUMAN (human) [18] = target: CXCL4_HUMAN (human) (UniProt P02776); assay: BLI, empty cell the 12th table, row 99, column 6
CXCL14_HUMAN (human) [19] = target: CXCL14_HUMAN (human) (UniProt O95715); assay: BLI, empty cell the 12th table, row 109, column 6
CXCL3_HUMAN (human) [20] = target: CXCL3_HUMAN (human) (UniProt P19876); assay: BLI, empty cell the 12th table, row 98, column 6
CXCL6_HUMAN (human) [21] = target: CXCL6_HUMAN (human) (UniProt P80162); assay: BLI, empty cell the 12th table, row 101, column 6
CCL20_HUMAN (human) [22] = target: CCL20_HUMAN (human) (UniProt P78556); assay: BLI, empty cell the 12th table, row 86, column 6
CCL19_HUMAN (human) [23] = target: CCL19_HUMAN (human) (UniProt Q99731); assay: BLI, empty cell the 12th table, row 85, column 6
CX3CL1_HUMAN (human) [24] = target: CX3CL1_HUMAN (human) (UniProt P78423); assay: BLI, empty cell the 12th table, row 95, column 6
CXCL10_HUMAN (human) [25] = target: CXCL10_HUMAN (human) (UniProt P02778); assay: BLI, empty cell the 12th table, row 105, column 6
XCL1_HUMAN (human) [26] = target: T1, XCL1_HUMAN (human) (UniProt P47992); assay: BLI, empty cell the 12th table, row 113, column 6
T1 sequence: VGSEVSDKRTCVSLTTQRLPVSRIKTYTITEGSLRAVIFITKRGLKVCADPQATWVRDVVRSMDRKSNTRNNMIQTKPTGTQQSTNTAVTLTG

CXCL8_HUMAN (human) [27] = target: CXCL8_HUMAN (human) (UniProt P10145); assay: BLI, empty cell the 12th table, row 103, column 6
CXCL9_HUMAN (human) [28] = target: CXCL9_HUMAN (human) (UniProt Q07325); assay: BLI, empty cell the 12th table, row 104, column 6
CXCL13_HUMAN (human) [29] = target: CXCL13_HUMAN (human) (UniProt O43927); assay: BLI, empty cell the 12th table, row 108, column 5
CCL5_HUMAN (human) [30] = target: CCL5_HUMAN (human) (UniProt P13501); assay: BLI, empty cell the 12th table, row 75, column 5
CCL1_HUMAN (human) [31] = target: CCL1_HUMAN (human) (UniProt P22362); assay: BLI, empty cell the 12th table, row 69, column 5
CCL20_HUMAN (human) [32] = target: CCL20_HUMAN (human) (UniProt P78556); assay: BLI, empty cell the 12th table, row 86, column 5
CCL19_HUMAN (human) [33] = target: CCL19_HUMAN (human) (UniProt Q99731); assay: BLI, empty cell the 12th table, row 85, column 5
CCL3_HUMAN (human) = CCL3_HUMAN (human) (UniProt P10147); assay: BLI, empty cell the 12th table, row 71, column 5
CXCL3_HUMAN (human) [34] = target: CXCL3_HUMAN (human) (UniProt P19876); assay: BLI, empty cell the 12th table, row 98, column 5
CXCL11_HUMAN (human) [35] = target: CXCL11_HUMAN (human) (UniProt O14625); assay: BLI, empty cell the 12th table, row 106, column 5
CCL17_HUMAN (human) [36] = target: CCL17_HUMAN (human) (UniProt Q92583); assay: BLI, empty cell the 12th table, row 83, column 5
CCL14_HUMAN (human) = CCL14_HUMAN (human) (UniProt Q16627); assay: BLI, empty cell the 12th table, row 80, column 5
CCL15_HUMAN (human) [37] = target: CCL15_HUMAN (human) (UniProt Q16663); assay: BLI, empty cell the 12th table, row 81, column 5
CCL28_HUMAN (human) [38] = target: CCL28_HUMAN (human) (UniProt Q9NRJ3); assay: BLI, empty cell the 12th table, row 94, column 5
CX3CL1_HUMAN (human) [39] = target: CX3CL1_HUMAN (human) (UniProt P78423); assay: BLI, empty cell the 12th table, row 95, column 5
CCL23_HUMAN (human) [40] = target: CCL23_HUMAN (human) (UniProt P55773); assay: BLI, empty cell the 12th table, row 89, column 5
CCL21_HUMAN (human) [41] = target: CCL21_HUMAN (human) (UniProt O00585); assay: BLI, empty cell the 12th table, row 87, column 5
CXCL8_HUMAN (human) [42] = target: CXCL8_HUMAN (human) (UniProt P10145); assay: BLI, empty cell the 12th table, row 103, column 5
CXCL10_HUMAN (human) [43] = target: CXCL10_HUMAN (human) (UniProt P02778); assay: BLI, empty cell the 12th table, row 105, column 5
CXCL9_HUMAN (human) [44] = target: CXCL9_HUMAN (human) (UniProt Q07325); assay: BLI, empty cell the 12th table, row 104, column 5
XCL1_HUMAN (human) [45] = target: T1, XCL1_HUMAN (human); assay: BLI, empty cell the 12th table, row 113, column 5
CXCL1_HUMAN (human) [46] = target: CXCL1_HUMAN (human) (UniProt P09341); assay: BLI, empty cell the 12th table, row 96, column 5
CCL24_HUMAN (human) [47] = target: CCL24_HUMAN (human) (UniProt O00175); assay: BLI, empty cell the 12th table, row 90, column 5
CXCL4_HUMAN (human) [48] = target: CXCL4_HUMAN (human) (UniProt P02776); assay: BLI, empty cell the 12th table, row 99, column 5
CXCL5_HUMAN (human) [49] = target: CXCL5_HUMAN (human) (UniProt P42830); assay: BLI, empty cell the 12th table, row 100, column 5
CCL27_HUMAN (human) [50] = target: CCL27_HUMAN (human) (UniProt Q9Y4X3); assay: BLI, empty cell the 12th table, row 93, column 5
CXCL12_HUMAN (human) [51] = target: CXCL12_HUMAN (human) (UniProt P48061); assay: BLI, empty cell the 12th table, row 107, column 5
CXCL7_HUMAN (human) [52] = target: CXCL7_HUMAN (human) (UniProt P02775); assay: BLI, empty cell the 12th table, row 102, column 5
CCL18_HUMAN (human) = CCL18_HUMAN (human) (UniProt P55774); assay: BLI, empty cell the 12th table, row 84, column 5
CXCL2_HUMAN (human) [53] = target: CXCL2_HUMAN (human) (UniProt P19875); assay: BLI, empty cell the 12th table, row 97, column 5
CXCL14_HUMAN (human) [54] = target: CXCL14_HUMAN (human) (UniProt O95715); assay: BLI, empty cell the 12th table, row 109, column 5
CXCL6_HUMAN (human) [55] = target: CXCL6_HUMAN (human) (UniProt P80162); assay: BLI, empty cell the 12th table, row 101, column 5
CCL16_HUMAN (human) [56] = target: CCL16_HUMAN (human) (UniProt O15467); assay: BLI, empty cell the 12th table, row 82, column 5

Measured: binding

B1: P1182_AMBMA (protein)
chain: EPKDDNDYGGGCPFVVLGNGTHAKPAGCSHLCNGAPETLDNIECYNVTEEVAKRMTPGIPYACWLGWCNKGECKRGNRTEVCYRGSEEE
no binding (tested: 300 nM): CCL7_HUMAN (human) | CXCL11_HUMAN (human) [1] | CCL5_HUMAN (human) [2] | CXCL2_HUMAN (human) [3] | CCL17_HUMAN (human) [4] | CXCL5_HUMAN (human) [5] | CCL22_HUMAN (human) | CCL27_HUMAN (human) [6] | CCL16_HUMAN (human) [7] | CCL28_HUMAN (human) [8] | CXCL12_HUMAN (human) [9] | CXCL13_HUMAN (human) [10] | CCL21_HUMAN (human) [11] | CXCL1_HUMAN (human) [12] | CXCL7_HUMAN (human) [13] | CCL1_HUMAN (human) [14] | CCL23_HUMAN (human) [15] | CCL24_HUMAN (human) [16] | CCL15_HUMAN (human) [17] | CXCL4_HUMAN (human) [18] | CXCL14_HUMAN (human) [19] | CXCL3_HUMAN (human) [20] | CXCL6_HUMAN (human) [21] | CCL20_HUMAN (human) [22] | CCL19_HUMAN (human) [23] | CX3CL1_HUMAN (human) [24] | CXCL10_HUMAN (human) [25] | XCL1_HUMAN (human) [26] | CXCL8_HUMAN (human) [27] | CXCL9_HUMAN (human) [28]

B2: P1183_AMBTR (protein)
chain: EAPKDDFEYDGGCPFVVLDNGTHVKPAGCSHLCNGAPETLDNIECYNVTEEVAKRMTPGIPYACWLGWCSKGECKRDNRTEVCYRGSEEE
no binding (tested: 300 nM): CXCL13_HUMAN (human) [29] | CCL5_HUMAN (human) [30] | CCL1_HUMAN (human) [31] | CCL20_HUMAN (human) [32] | CCL19_HUMAN (human) [33] | CCL3_HUMAN (human) | CXCL3_HUMAN (human) [34] | CXCL11_HUMAN (human) [35] | CCL17_HUMAN (human) [36] | CCL14_HUMAN (human) | CCL15_HUMAN (human) [37] | CCL28_HUMAN (human) [38] | CX3CL1_HUMAN (human) [39] | CCL23_HUMAN (human) [40] | CCL21_HUMAN (human) [41] | CXCL8_HUMAN (human) [42] | CXCL10_HUMAN (human) [43] | CXCL9_HUMAN (human) [44] | XCL1_HUMAN (human) [45] | CXCL1_HUMAN (human) [46] | CCL24_HUMAN (human) [47] | CXCL4_HUMAN (human) [48] | CXCL5_HUMAN (human) [49] | CCL27_HUMAN (human) [50] | CXCL12_HUMAN (human) [51] | CXCL7_HUMAN (human) [52] | CCL18_HUMAN (human) | CXCL2_HUMAN (human) [53] | CXCL14_HUMAN (human) [54] | CXCL6_HUMAN (human) [55] | CCL16_HUMAN (human) [56]
